From publication PMC7156110, “The MAPK substrate MASS proteins regulate stomatal development in Arabidopsis” (PLoS Genetics, 2020)
Results are given in words; binding and its absence hold for the method and conditions named. For some of these results: In cells and extracts the contact can be indirect. Some results given as binding are weak or reduced against the parent protein; the word gives no strength. For some of these results: Where a sequence is shown, tags or fusion partners need not be part of it.

T1: YDA^KI (kinase-inactive YDA, K429R), split-YFP fusion for BiFC (Arabidopsis thaliana) (UniProt Q9CAD5)
T1 sequence: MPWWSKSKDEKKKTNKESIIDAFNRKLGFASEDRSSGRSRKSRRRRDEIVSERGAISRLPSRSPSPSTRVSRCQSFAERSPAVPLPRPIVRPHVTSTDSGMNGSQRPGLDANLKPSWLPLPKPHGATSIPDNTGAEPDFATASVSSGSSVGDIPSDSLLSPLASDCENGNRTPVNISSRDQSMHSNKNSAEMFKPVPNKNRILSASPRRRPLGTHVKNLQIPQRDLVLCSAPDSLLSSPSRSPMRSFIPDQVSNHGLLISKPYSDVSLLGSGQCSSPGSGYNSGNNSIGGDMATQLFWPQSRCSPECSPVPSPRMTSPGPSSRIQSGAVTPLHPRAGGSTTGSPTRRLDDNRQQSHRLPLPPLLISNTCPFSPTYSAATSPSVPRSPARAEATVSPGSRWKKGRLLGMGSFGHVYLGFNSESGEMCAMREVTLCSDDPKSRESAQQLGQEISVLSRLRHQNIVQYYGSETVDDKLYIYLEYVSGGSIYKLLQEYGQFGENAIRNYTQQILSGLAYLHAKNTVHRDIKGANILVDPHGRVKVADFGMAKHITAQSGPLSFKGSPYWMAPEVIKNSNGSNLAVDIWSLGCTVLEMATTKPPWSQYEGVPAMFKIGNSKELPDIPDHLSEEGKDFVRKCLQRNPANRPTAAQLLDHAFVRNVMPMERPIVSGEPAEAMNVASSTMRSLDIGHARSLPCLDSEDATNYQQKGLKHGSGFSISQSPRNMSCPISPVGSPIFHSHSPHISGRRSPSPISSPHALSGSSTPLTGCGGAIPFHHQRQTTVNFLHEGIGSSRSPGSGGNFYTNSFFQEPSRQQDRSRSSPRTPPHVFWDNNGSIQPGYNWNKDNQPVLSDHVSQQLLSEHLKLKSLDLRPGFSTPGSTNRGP

T2: YDA^KI-YFP (kinase-inactive YDA, K429R) (Arabidopsis thaliana) (UniProt Q9CAD5)
T2 sequence: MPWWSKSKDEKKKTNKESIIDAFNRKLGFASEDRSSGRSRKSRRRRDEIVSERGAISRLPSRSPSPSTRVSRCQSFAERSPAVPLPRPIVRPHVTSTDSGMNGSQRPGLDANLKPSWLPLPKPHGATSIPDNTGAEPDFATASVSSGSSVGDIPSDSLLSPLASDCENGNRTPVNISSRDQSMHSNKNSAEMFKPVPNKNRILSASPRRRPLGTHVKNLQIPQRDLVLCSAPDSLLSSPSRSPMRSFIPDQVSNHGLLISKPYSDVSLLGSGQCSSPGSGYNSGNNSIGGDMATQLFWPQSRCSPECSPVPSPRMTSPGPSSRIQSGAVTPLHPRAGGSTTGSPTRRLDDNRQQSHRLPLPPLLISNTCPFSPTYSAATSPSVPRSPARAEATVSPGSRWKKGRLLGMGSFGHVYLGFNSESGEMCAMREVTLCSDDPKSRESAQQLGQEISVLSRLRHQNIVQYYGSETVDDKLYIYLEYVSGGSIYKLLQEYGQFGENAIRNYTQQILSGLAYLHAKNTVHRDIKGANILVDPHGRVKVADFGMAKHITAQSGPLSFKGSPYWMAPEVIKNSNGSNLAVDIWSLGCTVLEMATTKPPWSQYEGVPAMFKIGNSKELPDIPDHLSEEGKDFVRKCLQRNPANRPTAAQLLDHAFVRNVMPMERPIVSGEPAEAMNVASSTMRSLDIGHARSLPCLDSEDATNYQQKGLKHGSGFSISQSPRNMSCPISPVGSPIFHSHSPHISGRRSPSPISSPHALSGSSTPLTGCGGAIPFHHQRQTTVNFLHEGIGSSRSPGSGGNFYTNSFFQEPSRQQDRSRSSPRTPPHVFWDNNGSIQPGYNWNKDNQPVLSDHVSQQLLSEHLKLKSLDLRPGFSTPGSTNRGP

T3: MASS2 recombinant protein of the BLI assay (Arabidopsis thaliana) (UniProt Q9XI29)
T3 sequence: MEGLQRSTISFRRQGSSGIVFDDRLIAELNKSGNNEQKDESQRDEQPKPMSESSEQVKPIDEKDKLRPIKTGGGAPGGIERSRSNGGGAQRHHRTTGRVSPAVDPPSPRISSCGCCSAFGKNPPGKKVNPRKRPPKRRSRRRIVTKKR


Columns and labels:
[1] = target: T1, YDA^KI (kinase-inactive YDA, K429R), split-YFP fusion for BiFC (Arabidopsis thaliana); experiment: split reporter; BiFC with split YFP in tobacco leaf epidermal cells; signal at the plasma membrane
[2] = target: T2, YDA^KI-YFP (kinase-inactive YDA, K429R) (Arabidopsis thaliana); experiment: co-IP; 35S::4xMyc-MASS2g and 35S::YDA^KI-YFP co-infiltrated into N. benthamiana leaves; GFP-Trap Agarose, 3 hr at 4°C; blots with anti-Myc and anti-GFP
[3] = target: T3, MASS2 recombinant protein of the BLI assay (Arabidopsis thaliana); experiment: BLI; BLItz system; recombinant protein loaded onto Ni-NTA biosensors, dipped in buffer with purified YDA protein; 50 mM Tris pH 8.0, 150 mM NaCl; room temperature; both purified

binding [1] | also measured | Binder
binds |  | MASS2, split-YFP fusion for BiFC (protein, UniProt Q9XI29 1-148) MEGLQRSTISFRRQGSSGIVFDDRLIAELNKSGNNEQKDESQRDEQPKPMSESSEQVKPIDEKDKLRPIKTGGGAPGGIERSRSNGGGAQRHHRTTGRVSPAVDPPSPRISSCGCCSAFGKNPPGKKVNPRKRPPKRRSRRRIVTKKR
binds |  | MASS1, split-YFP fusion for BiFC (protein, UniProt Q9SSC1 1-138) MAGLQRSTISFRRQGSSGIVWDDRLIAELSQQAANDRKGETLQQDEQAKLITSEVQDQTTKPIAGEGLKPIRTDGGMERSRSNGGGAIRHHRNTGRVSPAVDPPSPRLSAFGCCSAFGKKQPGKKVNQRKRPAKRRSR
 | binding [2]: binds | 4xMyc-MASS2g (MASS2 expressed from its genomic region) (protein, UniProt Q9XI29 1-148) MEGLQRSTISFRRQGSSGIVFDDRLIAELNKSGNNEQKDESQRDEQPKPMSESSEQVKPIDEKDKLRPIKTGGGAPGGIERSRSNGGGAQRHHRTTGRVSPAVDPPSPRISSCGCCSAFGKNPPGKKVNPRKRPPKRRSRRRIVTKKR
 | binding [3]: binds | YDA, purified protein of the BLI assay (enzyme, UniProt Q9CAD5 1-883) MPWWSKSKDEKKKTNKESIIDAFNRKLGFASEDRSSGRSRKSRRRRDEIVSERGAISRLPSRSPSPSTRVSRCQSFAERSPAVPLPRPIVRPHVTSTDSGMNGSQRPGLDANLKPSWLPLPKPHGATSIPDNTGAEPDFATASVSSGSSVGDIPSDSLLSPLASDCENGNRTPVNISSRDQSMHSNKNSAEMFKPVPNKNRILSASPRRRPLGTHVKNLQIPQRDLVLCSAPDSLLSSPSRSPMRSFIPDQVSNHGLLISKPYSDVSLLGSGQCSSPGSGYNSGNNSIGGDMATQLFWPQSRCSPECSPVPSPRMTSPGPSSRIQSGAVTPLHPRAGGSTTGSPTRRLDDNRQQSHRLPLPPLLISNTCPFSPTYSAATSPSVPRSPARAEATVSPGSRWKKGRLLGMGSFGHVYLGFNSESGEMCAMKEVTLCSDDPKSRESAQQLGQEISVLSRLRHQNIVQYYGSETVDDKLYIYLEYVSGGSIYKLLQEYGQFGENAIRNYTQQILSGLAYLHAKNTVHRDIKGANILVDPHGRVKVADFGMAKHITAQSGPLSFKGSPYWMAPEVIKNSNGSNLAVDIWSLGCTVLEMATTKPPWSQYEGVPAMFKIGNSKELPDIPDHLSEEGKDFVRKCLQRNPANRPTAAQLLDHAFVRNVMPMERPIVSGEPAEAMNVASSTMRSLDIGHARSLPCLDSEDATNYQQKGLKHGSGFSISQSPRNMSCPISPVGSPIFHSHSPHISGRRSPSPISSPHALSGSSTPLTGCGGAIPFHHQRQTTVNFLHEGIGSSRSPGSGGNFYTNSFFQEPSRQQDRSRSSPRTPPHVFWDNNGSIQPGYNWNKDNQPVLSDHVSQQLLSEHLKLKSLDLRPGFSTPGSTNRGP
